These are yes or no findings as the source states them, for the method shown. In cells and extracts the contact can be indirect. Some results given as binding are weak or reduced against the parent protein; the word gives no strength. Sequences can lack the tags named with a protein.
Target: T1, GFP-tagged XBP1s WT (mouse, full length) (mouse) (UniProt O35426)
T1 sequence: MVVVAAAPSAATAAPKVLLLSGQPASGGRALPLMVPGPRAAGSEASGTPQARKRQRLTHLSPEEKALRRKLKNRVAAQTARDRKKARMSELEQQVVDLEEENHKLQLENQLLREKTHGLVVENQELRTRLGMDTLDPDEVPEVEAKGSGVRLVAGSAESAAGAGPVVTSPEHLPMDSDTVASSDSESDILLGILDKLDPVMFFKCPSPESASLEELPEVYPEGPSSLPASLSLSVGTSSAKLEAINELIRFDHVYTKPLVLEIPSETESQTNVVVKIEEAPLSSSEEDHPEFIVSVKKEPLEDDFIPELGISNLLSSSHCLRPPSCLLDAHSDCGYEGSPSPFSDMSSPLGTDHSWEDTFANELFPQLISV
Assay: co-IP; HEK293 cells co-transfected with HA-CDK5 and GFP-XBP1s WT plasmids, collected 24 h after transfection; immunoprecipitation with GFP antibody, western blot with HA antibody

## HA-tagged CDK5 (from UniProt P49615 1-292) (enzyme)
  binding: binds
